# Screen size: about 71,000 compounds; about 310 (0.44%) were called active. The inconclusive results got no clear call from the source; some entries with a clear call stand among them for comparison. Calls follow the shape of the dose curve; as a rule, active = well fitted curve in either direction with a large enough effect; inconclusive = small, poorly fitted or top-dose-only effect, or another doubt; inactive = flat fitted curve, though single readings scatter. Potencies beside an inconclusive call are fits to weak or partial responses and may not hold up.
# System: Hsp90 C-terminal peptide / TPR2A (Hop) interaction, human
# Assay: qHTS Assay for Disrupters of an Hsp90 Co-Chaperone Interaction
# Conditions: AlphaScreen TPR2A-His6 binding biotin-Hsp90 C-terminal peptide; activity change, negative = inhibition: at 57 µM (top of the series) unless noted
# % is scaled to controls: 0 for no effect and ±100 for the full control effect; potency is read from the fitted curve at half-maximal effect.
SMILES,"activity change, negative = inhibition",Potency
Cc1cc(C)n(-c2nc3sc4c(c3c3nnc(SCC(N)=O)n23)CC(C)(C)OC4)n1,inconclusive: 39.1%,–
COc1ccc(-c2nnc(SCc3cc(C)cc(C)c3)o2)cc1,–,"inconclusive: 31.6 µM [activator, single point]"
CCOC(=O)c1cc(-c2ccc(C)cc2)n(CC(=O)NCc2ccco2)c1C,inconclusive: 46.9%,–
CNc1ccccc1C(C)(C)c1cc(-c2ccco2)n[nH]1,–,"inconclusive: 31.6 µM [inhibitor, single point]"
O=C(NCC1CCCO1)c1ccc(/C=N/O)nc1 (stereo not given),–,"inconclusive: 31.6 µM [inhibitor, single point]"
O=S(=O)(Nc1ccc2c(c1)OCCO2)c1cccc2cccnc12,inactive: 1.19%,–
c1cncc(CNc2nc(-c3cccnc3)nc3ccccc23)c1,inactive: -5.17%,–
CCc1nc2c(sc3nc4c(cc32)COC(C)(C)C4)c(=O)n1Cc1ccco1,inconclusive: 26%,–
O=C1CCC(=O)N1CCOP1(=O)COc2ccccc2OC1,inconclusive: 41.2%,–
COCC(=O)N1CCC2(CC1)CCN(c1ccccc1)CC2,inactive: 1.1%,–
Cc1ccc2c(c1C)NC(C(=O)O)C1CC=CC21 (stereo not given),inactive: -14.5%,–
COc1ccccc1NC(=O)N(Cc1ccco1)Cc1cc2ccc(C)c(C)c2[nH]c1=O,inactive: -9.92%,–
Nc1ccc2c(c1)ncn2CCCn1cnc2cc(N)ccc21,–,"inconclusive: 31.6 µM [inhibitor, single point]"
O=C(CSc1nnc(CNC(=O)c2c(F)cccc2Cl)o1)NCc1ccc2c(c1)OCO2,inconclusive: 59.1%,–
CCC(Cl)CC(Cl)C(Cl)C(Cl)C(Cl)C(C)Cl (stereo not given),–,active: 31.6 µM [activator]
O=C(CC(Nc1ccc(F)cc1)C(=O)O)c1ccccc1 (stereo not given),inactive: -4.22%,–
COc1ccc(CNC(=O)CCCCCn2c(SCC#N)nc3cc4c(cc3c2=O)OCO4)cc1,inconclusive: 49.4%,–
N[C@H](C(=O)O)c1nn[nH]n1,–,"inconclusive: 39.8 µM [inhibitor, partial curve]"
Oc1ccc(CN2CCN(Cc3ccccc3)CC2)c2cccnc12,–,active: 3.98 µM
CC(C)=C[C@H]1[C@@H](C(=O)Oc2ccccc2C(C)C)C1(C)C,inconclusive: 97% [at 11 µM],–
COc1cc(C(Nc2ccc3c(c2)OCO3)C(=O)NC2CCCCC2)cc(OC)c1OC (stereo not given),–,"inconclusive: 31.6 µM [inhibitor, partial curve]"
O=C1CCCC2=C1C(c1ccco1)Nc1ccc(C(=O)c3ccccc3)cc1N2 (stereo not given),–,"inconclusive: 12.6 µM [inhibitor, partial curve]"
CCN(CC)c1ccc(NC(=O)Nc2cccc(C(C)=O)c2)cc1,inactive: -12.7%,–

SMILES,"activity change, negative = inhibition",Potency
CCOC(=O)C1=C(C)NC(C)=C(C(=O)OC)[C@@H]1c1cccc(Cl)c1Cl,inactive: 9.02% [at 26 µM],–
O=C(N[C@H](CO)[C@H](O)c1ccc([N+](=O)[O-])cc1)C(Cl)Cl,inconclusive: 53.8%,–
O=C(CN1CCN(S(=O)(=O)c2ccc(Br)cc2)CC1)Nc1ccc(F)cc1F,inactive: -1.55%,–
O=C(COC(=O)c1ccccc1Oc1ccccc1)NCc1ccco1,inactive: -6.28%,–
COc1ccc(-c2nn(C)c3sc(C(=O)N4CCOCC4)cc23)cc1OC,inactive: -0.321%,–
O=C(OCc1ccccc1)Oc1cncc(C(=O)O)c1,inactive: -1.76%,–
O=C(OCC(=O)c1c[nH]c2ccccc12)c1ccco1,inactive: -0.577%,–
C=CCOc1ccccc1/C=N/O,inactive: -7.31%,–
Cc1c(NC(=O)c2ccccc2N)cccc1C(=O)O,inconclusive: 67.2%,–
O=C(NC1CCCCC1)c1cnn2c(C(F)(F)F)cc(-c3ccco3)nc12,inactive: -3.74%,–
COC(=O)c1ccc(OC(=O)c2ccc(OCc3c(C)noc3C)c(OC)c2)cc1,inconclusive: 39.1%,–
N#C/C(=C\c1c[nH]c2ccccc12)C(=O)c1ccc(O)c(O)c1,–,"inconclusive: 15.8 µM [inhibitor, partial curve]"
Cn1cnc2c1c(=O)[nH]c(=O)n2C,inconclusive: 70.4% [at 26 µM],–
COc1ccc(-n2c(SCc3nnc(-c4ccccc4)o3)nnc2-c2ccccc2)cc1,inactive: -9.23%,–
C=C(C)COc1ccc2c(C)c(CC(=O)OC)c(=O)oc2c1C,inactive: 7.61%,–
CCNC(=O)C1CC(=O)N(Cc2ccc(F)cc2)C(=Nc2ccc(OC)cc2)S1 (stereo not given),inactive: -1.37%,–
CCn1c(CCNC(=O)c2cccs2)nnc1SCC(=O)c1ccc(OC)cc1,inconclusive: 44.3%,–
Cc1ccccc1NC(=O)CCn1c(=O)oc2ccccc21,inconclusive: 48%,–
O=C(Nc1nnc(COc2ccc(Cl)cc2)s1)c1cccs1,inactive: -2.37%,–
Cn1c(SCC(=O)NCc2ccc3c(c2)OCO3)nnc1C1COc2ccccc2O1 (stereo not given),inactive: -0.387%,–
Cc1ccc(OC(=O)c2cccc(C(=O)Oc3ccc(C)cn3)n2)nc1,–,"inconclusive: 31.6 µM [inhibitor, single point]"
COc1ccc(NC(=O)CSc2nnc(CN3CCOCC3)n2-c2ccccc2)cc1Cl,inconclusive: 35%,–

SMILES,"activity change, negative = inhibition",Potency
COc1ccc(N2CCN(c3oc(COc4ccccc4)nc3C#N)CC2)cc1,–,active: 12.6 µM
c1ccc(-c2cccc(N3CC[C@@]4(CCCNC4)C3)c2)cc1,–,"inconclusive: 25.1 µM [inhibitor, partial curve]"
COc1ccc(N(C(=O)c2ccco2)C(C(=O)NC2CCCC2)c2ccc(N(C)C)cc2)cc1OC (stereo not given),inactive: -4.58%,–
CCOC(=O)c1cc2c(=O)n3cccc(C)c3nc2n(CC2CCCO2)c1=NC(C)=O (stereo not given),inactive: -4.86%,–
CCCc1cc(-c2ccc(O)c(OCC)c2)c(C#N)c(N)n1,inactive: -1.75%,–
CCOC(=O)c1cc2sccc2n1Cc1ccc(C#N)cc1,–,"inconclusive: 31.6 µM [activator, single point]"
COc1cccc(-c2nn3c(-c4cc(C)[nH]n4)nnc3s2)c1,inconclusive: 36.7%,–
CCOC(=O)c1c(NC(=O)c2cccs2)sc2c1CCN(C(=O)OCC)C2,–,"inconclusive: 12.6 µM [activator, partial curve]"
Cc1sc2nc3ccc(N4CCCCC4)nn3c(=O)c2c1C,inactive: 0.892%,–
O=C(c1ccc(N2CN(C(=O)c3ccco3)c3nc4ccccc4nc32)cc1)N1CCOCC1,–,"inconclusive: 25.1 µM [inhibitor, partial curve]"
O=S(=O)(NCCN1CCCC1)c1cccc2cccnc12,inactive: -4.64%,–
Cc1ccc2c(c1)-c1cc(C)nn1C(c1sccc1C)N2 (stereo not given),–,active: 25.1 µM [activator]
Cn1cccc1C(=O)N1CCC2(CC1)CCN(c1cccc(-c3ccccc3)c1)CC2,–,"inconclusive: 31.6 µM [inhibitor, partial curve]"
O=C(O)/C=C\c1ccc(O)c(O)c1,inactive,–
COc1ccc2c(c1)Cc1sc(NC(=O)c3cccs3)nc1-2,inactive: -6.08%,–
COC(=O)CNc1nc(C2CC2)nc2c1nnn2Cc1ccccc1Cl,inconclusive: -2.4%,–
CS(=O)(=O)N(CC(=O)N1CCOCC1)Cc1ccccc1,inconclusive: 52.3%,–
Cn1c(C(=O)OCC(=O)NCC2CCCO2)cc2sccc21 (stereo not given),inconclusive: 48.5%,–
CCCN(Cc1cc2cc(OC)ccc2[nH]c1=O)C(=O)c1ccncc1,inactive: -2.66%,–
Cc1cc2cc(CNC(=O)Nc3ccccc3)ccc2n1C,–,"inconclusive: 39.8 µM [inhibitor, single point]"
Cc1ccc(S(=O)(=O)C(C#N)c2nc3ccccc3nc2N2CCCC2)cc1 (stereo not given),inactive: -19%,–
Nc1ccc2c(c1)C(=O)N(CC1CCCO1)C2=O (stereo not given),inconclusive: 45.8%,–
CC(=O)NCC(=O)N(Cc1ccco1)C1(C(=O)NC2CCCCC2)CCCCC1,inconclusive: 44%,–

# Reformatted: 4 of the compounds above
SMILES | activity change, negative = inhibition | Potency
c1ccc(-c2cccc(N3CC[C@@]4(CCCNC4)C3)c2)cc1 | – | inconclusive: 25.1 µM [inhibitor, partial curve]
COc1ccc(N(C(=O)c2ccco2)C(C(=O)NC2CCCC2)c2ccc(N(C)C)cc2)cc1OC (stereo not given) | inactive: -4.58% | –
CCOC(=O)c1cc2c(=O)n3cccc(C)c3nc2n(CC2CCCO2)c1=NC(C)=O (stereo not given) | inactive: -4.86% | –
CCCc1cc(-c2ccc(O)c(OCC)c2)c(C#N)c(N)n1 | inactive: -1.75% | –

# Further structures.

SMILES,"activity change, negative = inhibition",Potency
Cc1onc(-c2ccccc2)c1C(=O)Nc1nnc(N(C)Cc2ccccc2)s1,inconclusive: 32.1%,–
c1ccc2c(c1)-c1cccc3c1c-2cc1ccccc13,–,active: 5.01 µM [activator]
COc1ccc(-c2[nH]nc3c2C(c2ccncc2)C(C#N)=C(N)O3)cc1 (stereo not given),inactive: -5.29%,–
CCN(CC)c1ccc(NC(=O)c2cccc(C)c2OC)c(C)c1,inactive: -19.6%,–
c1ccc(C(c2nnnn2C2CCCC2)N2CCCCCC2)nc1 (stereo not given),–,"inconclusive: 31.6 µM [inhibitor, single point]"
O=c1c(-c2ccc(Cl)cc2)nc2cnc(N3CCOCC3)nc2n1CCc1ccccc1,inactive: -3.43%,–
Cc1ccc(-c2nc(C3CCCN(S(=O)(=O)c4ccc(C)cc4)C3)no2)cc1 (stereo not given),–,"inconclusive: 15.8 µM [activator, partial curve]"
CNc1ncncc1-c1ccccc1C(F)(F)F,inactive: -6.04%,–
C=CCN1CCc2c(cc(O)c(O)c2Br)[C@H](c2ccccc2)C1,–,active: 10 µM
CSc1ncccc1C(=O)OCC(=O)N1CCOCC1,inconclusive: 34.5%,–
Cc1noc(C)c1-c1cncnc1N1CCN(C)CC1,inactive: -1.08%,–
N#Cc1c(-c2ccco2)cc(-c2cccnc2)nc1N,–,"inconclusive: 31.6 µM [inhibitor, single point]"
Oc1c(CN2CCCCC2)cc(COCc2ccccc2)c2cccnc12,–,active: 2.51 µM
Cc1nn(Cc2ccccc2)c(Cl)c1C(=O)OCc1nnc(-c2ccc(Cl)cc2)o1,inactive: 23.4%,–
CCOC(=O)CSc1cccc2cccnc12,–,active: 15.8 µM
Cc1cccc(O)c1C,inconclusive: 55.5%,–
Cc1cc(C)n2nnnc2c1C#N,inconclusive: 40.6%,–
C[C@@](N)(Cc1ccc(O)c(O)c1)C(=O)O,–,"inconclusive: 31.6 µM [inhibitor, partial curve]"
N#CC1=C(N)Oc2n[nH]c(-c3cccs3)c2C1c1ccsc1 (stereo not given),inconclusive: -3.43%,–
C=CCn1c(-c2ccco2)n[nH]c1=S,inconclusive: 55.4% [at 11 µM],–
C[C@H]1CC(C)(C)C[C@@](OCCN2CCCCC2)(c2ccccc2)C1,inconclusive: 84.9% [at 11 µM],–

# Source: PubChem BioAssay AID595 (National Center for Advancing Translational Sciences (NCATS), 2007)
